These are yes or no findings as the source states them, for the method shown. Some results given as binding are weak or reduced against the parent protein; the word gives no strength.
T1: wild-type E. coli OmpF embedded in the membrane of E. coli MDS42 cells (Escherichia coli) (UniProt P02931)
T1 sequence: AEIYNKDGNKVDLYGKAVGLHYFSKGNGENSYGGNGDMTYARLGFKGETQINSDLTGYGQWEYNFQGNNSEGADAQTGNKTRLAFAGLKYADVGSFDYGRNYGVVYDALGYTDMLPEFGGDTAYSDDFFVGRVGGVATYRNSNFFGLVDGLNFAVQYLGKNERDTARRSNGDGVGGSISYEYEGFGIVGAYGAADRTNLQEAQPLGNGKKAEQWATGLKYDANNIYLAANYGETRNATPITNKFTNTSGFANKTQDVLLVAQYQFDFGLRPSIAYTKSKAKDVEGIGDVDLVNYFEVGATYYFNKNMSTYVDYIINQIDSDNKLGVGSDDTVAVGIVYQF

B1: L1 engineered rcSso7d binder (designed binder)
chain: ATVKFTYQGEEKQVDISKIKMVIRMGQMILFTYDEGGGAMGRGIVSEKDAPKELLQMLEKQ
B2: L2 engineered rcSso7d binder (designed binder)
chain: ATVKFTYQGEEKQVDISKIKYVIRFGQKIMFKYDEGGGAHGSGMVSEKDAPKELLQMLEKQ
B3: DBP1-L1 chimeric protein (designed binder)
chain: MADLPQKVSNLSINNKENGGGGGKSSYVPPHLRSRGKPSFERRSPKQKDKVTGGDFFRRAGRQTGNNGGFFGFSKERNGGTSANYNRRGSSNYKSSGNRWVNGKHIPGPKNAKLQKAELFGVHDDPDYHSSGIKFDNYDNIPVDASGKDVPEPILGGRTRGGGGFFNSRNNGSRDYRKHGGNGSFGSTRPRNTGTSNWGSIGGGFRNDNEKNGYGNSNASWWGSATVKFTYQGEEKQVDISKIKMVIRMGQMILFTYDEGGGAMGRGIVSEKDAPKELLQMLEKQ
B4: DBP1-L2 chimeric protein (designed binder)
chain: MADLPQKVSNLSINNKENGGGGGKSSYVPPHLRSRGKPSFERRSPKQKDKVTGGDFFRRAGRQTGNNGGFFGFSKERNGGTSANYNRRGSSNYKSSGNRWVNGKHIPGPKNAKLQKAELFGVHDDPDYHSSGIKFDNYDNIPVDASGKDVPEPILGGRTRGGGGFFNSRNNGSRDYRKHGGNGSFGSTRPRNTGTSNWGSIGGGFRNDNEKNGYGNSNASWWGSATVKFTYQGEEKQVDISKIKYVIRFGQKIMFKYDEGGGAHGSGMVSEKDAPKELLQMLEKQ

How the values were obtained:
[1] = biological target: T1, wild-type E. coli OmpF embedded in the membrane of E. coli MDS42 cells (Escherichia coli); test: specificity assay by flow cytometry
[2] = biological target: T1, wild-type E. coli OmpF embedded in the membrane of E. coli MDS42 cells (Escherichia coli); test: flow cytometry on E. coli expressing wtOmpF, PBS

Binder | binding [1] | binding [2]
B1 | binds | 
B2 | binds | 
B3 |  | binds
B4 |  | binds

Reference: patent EP4480961A1
